Measurements as given in paper PMC4364741.
No constants are given. Whether binding was seen depends on the method and setting.

By UniProt entry, the sequences of proteins in these tests, tags left out. Residues count along the entry.
UniProt P26022, residues 18-381: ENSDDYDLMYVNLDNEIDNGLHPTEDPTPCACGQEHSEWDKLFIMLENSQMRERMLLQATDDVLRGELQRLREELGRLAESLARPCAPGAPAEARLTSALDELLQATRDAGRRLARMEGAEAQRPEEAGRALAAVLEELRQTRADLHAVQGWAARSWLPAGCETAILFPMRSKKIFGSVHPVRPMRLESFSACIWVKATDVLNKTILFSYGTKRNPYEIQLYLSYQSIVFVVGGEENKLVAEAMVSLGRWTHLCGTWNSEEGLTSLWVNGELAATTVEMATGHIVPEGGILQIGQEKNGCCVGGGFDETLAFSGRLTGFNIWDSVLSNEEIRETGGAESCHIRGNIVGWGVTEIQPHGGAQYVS
UniProt Q9JXV4, residues 20-274: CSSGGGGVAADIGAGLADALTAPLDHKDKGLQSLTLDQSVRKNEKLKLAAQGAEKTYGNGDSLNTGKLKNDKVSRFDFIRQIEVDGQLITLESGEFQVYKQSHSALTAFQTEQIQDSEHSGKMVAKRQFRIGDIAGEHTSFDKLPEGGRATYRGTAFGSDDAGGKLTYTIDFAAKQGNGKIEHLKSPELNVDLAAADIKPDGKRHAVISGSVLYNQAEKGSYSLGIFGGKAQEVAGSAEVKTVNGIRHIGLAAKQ
UniProt Q9JXK7, residues 24-362: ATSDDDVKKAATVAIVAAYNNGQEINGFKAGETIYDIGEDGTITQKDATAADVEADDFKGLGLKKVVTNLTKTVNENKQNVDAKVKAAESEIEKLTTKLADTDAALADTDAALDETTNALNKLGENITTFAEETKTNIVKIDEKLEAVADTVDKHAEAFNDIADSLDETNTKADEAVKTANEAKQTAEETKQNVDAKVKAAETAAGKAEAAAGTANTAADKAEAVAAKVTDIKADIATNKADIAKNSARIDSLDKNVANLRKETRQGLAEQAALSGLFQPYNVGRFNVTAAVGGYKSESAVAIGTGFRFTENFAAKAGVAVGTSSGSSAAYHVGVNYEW

Columns and labels:
[1] = biological target: Recombinant human long pentraxin 3 (PTX3) (human) (UniProt P26022); experiment: ELISA; plates coated with human PTX3 (1 μg/well), incubated with Nm antigens (1 μg/well), revealed with specific polyclonal antibodies (1:1000) and HRP-linked secondary antibody; A450; both purified
[2] = biological target: GNA1870 (factor H binding protein, fHbp) (Neisseria meningitidis) (UniProt Q9JXV4); experiment: ELISA; plastic wells coated with the recombinant Nm proteins (1 μg/well), incubated with human or murine PTX3, human CRP or SAP (22 pmoles) for 1 h at 37°C, then antibodies; A450; both purified
[3] = biological target: T1, GNA2132 (Neisserial heparin binding antigen, NHBA) (Neisseria meningitidis) (UniProt Q7DD37); experiment: as above
T1 sequence: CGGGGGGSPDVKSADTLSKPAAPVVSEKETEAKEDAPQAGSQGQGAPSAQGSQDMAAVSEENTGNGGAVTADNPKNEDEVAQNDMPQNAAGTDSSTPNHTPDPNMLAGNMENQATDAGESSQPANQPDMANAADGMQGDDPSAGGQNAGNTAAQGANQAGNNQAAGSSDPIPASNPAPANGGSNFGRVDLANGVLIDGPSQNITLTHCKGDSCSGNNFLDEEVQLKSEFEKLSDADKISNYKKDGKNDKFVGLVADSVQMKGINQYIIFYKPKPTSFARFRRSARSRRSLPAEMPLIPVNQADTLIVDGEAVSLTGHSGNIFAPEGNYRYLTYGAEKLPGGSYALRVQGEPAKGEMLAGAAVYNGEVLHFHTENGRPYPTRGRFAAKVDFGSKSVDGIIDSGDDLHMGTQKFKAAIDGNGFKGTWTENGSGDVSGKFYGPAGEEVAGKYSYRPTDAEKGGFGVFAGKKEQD

[4] = biological target: T2, Genome-derived Neisserial antigen GNA0667 (Neisseria meningitidis) (UniProt Q9K0E2); experiment: as above
T2 sequence: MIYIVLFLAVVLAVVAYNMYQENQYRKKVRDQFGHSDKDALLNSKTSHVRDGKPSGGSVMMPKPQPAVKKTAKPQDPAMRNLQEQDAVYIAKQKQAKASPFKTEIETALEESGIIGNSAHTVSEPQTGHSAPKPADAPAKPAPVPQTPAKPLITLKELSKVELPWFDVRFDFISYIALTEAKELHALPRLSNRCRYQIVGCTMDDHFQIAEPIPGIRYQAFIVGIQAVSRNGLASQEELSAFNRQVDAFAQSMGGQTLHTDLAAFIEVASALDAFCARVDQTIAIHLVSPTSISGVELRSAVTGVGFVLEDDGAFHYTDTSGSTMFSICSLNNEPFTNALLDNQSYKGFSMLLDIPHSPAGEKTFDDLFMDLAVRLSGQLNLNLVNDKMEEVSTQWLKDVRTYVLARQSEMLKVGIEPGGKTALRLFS

[5] = biological target: Genome-derived Neisserial antigen GNA1220 (Neisseria meningitidis) (UniProt Q7DDD7); experiment: as above
[6] = biological target: Genome-derived Neisserial antigen GNA1994 (Neisseria meningitidis) (UniProt Q9JXK7); experiment: as above

Measured: binding

B1: GNA2132 (Neisserial heparin binding antigen, NHBA) (protein, UniProt Q7DD37 18-488)
chain: CGGGGGGSPDVKSADTLSKPAAPVVSEKETEAKEDAPQAGSQGQGAPSAQGSQDMAAVSEENTGNGGAVTADNPKNEDEVAQNDMPQNAAGTDSSTPNHTPDPNMLAGNMENQATDAGESSQPANQPDMANAADGMQGDDPSAGGQNAGNTAAQGANQAGNNQAAGSSDPIPASNPAPANGGSNFGRVDLANGVLIDGPSQNITLTHCKGDSCSGNNFLDEEVQLKSEFEKLSDADKISNYKKDGKNDKFVGLVADSVQMKGINQYIIFYKPKPTSFARFRRSARSRRSLPAEMPLIPVNQADTLIVDGEAVSLTGHSGNIFAPEGNYRYLTYGAEKLPGGSYALRVQGEPAKGEMLAGAAVYNGEVLHFHTENGRPYPTRGRFAAKVDFGSKSVDGIIDSGDDLHMGTQKFKAAIDGNGFKGTWTENGSGDVSGKFYGPAGEEVAGKYSYRPTDAEKGGFGVFAGKKEQD
no binding (tested: 1 μg/well): [1]

B2: Human C reactive Protein (protein, UniProt P02741 19-224)
chain: QTDMSRKAFVFPKESDTSYVSLKAPLTKPLKAFTVCLHFYTELSSTRGYSIFSYATKRQDNEILIFWSKDIGYSFTVGGSEILFEVPEVTVAPVHICTSWESASGIVEFWVDGKPRVRKSLKKGYTVGAEASIILGQEQDSFGGNFEGSQSLVGDIGNVNMWDFVLSPDEINTIYLGGPFSPNVLNWRALKYEVQGEVFTKPQLWP
not listed: [1]
no binding (tested: 22 pmoles): all other assays above
